Results: patent US6147204

What was measured:
[1] = test system: thrombin; assay: inhibition of the protein; conditions: cholesterol, 7.08 ug/300 ul, control 18-20 s, 50 mM Tris, 100 mM NaCl, label: fluorescein (approximately 50% of molecules), single-stranded DNA
[2] = test system: VEGF (vascular endothelial growth factor); assay: binding assay; conditions: 5'-dialkylglycerol (DAG), embedded in DSPC:cholesterol liposome; 1 uM significantly inhibited VEGF-induced vascular permeability in guinea pigs (Miles assay); variant of NX213
[3] = test system: VEGF (vascular endothelial growth factor); assay: activity in cells; conditions: dialkylglycerol (DAG), embedded in DSPC:cholesterol liposome; KS cell proliferation; variant of NX278-liposome

CAGTCCGTGGTAGGGCAGGTTGGGGTGACTTCGTGGAAT [NX232 liposome (DSPC:Chol 2:1)]
functional effect of the aptamer ([1]; embedded in liposome, liposome preparation A, preparation B 56-59 s, 1 mM MgCl2, pH 7.4, 37 C, variant of NX232): active

CAGTCCGTGGTAGGGCAGGTTGGGGTGACTTCGTGGAAT [NX232]
functional effect of the aptamer ([1]; unsonicated, sonicated 45-50 s, 1 mM MgCl2, 0.1% PEG8000, pH 7.4, 37 C, fibrinogen 2.5 mg/ml): active

TTTTACCCUGAUGGUAGACGCCGGGGUGTTTTT [NX278-liposome]
binding result [2]: binds

TTTTGUCGGUACGGAGUGGACCGUCACGTTTTT [scNX278-liposome]
IC50 [3]: > 1000 nM

For some of these results: Construct, isoform or probe ends are uncertain for at least one entry.
